The target of the experiment is Flag-TRAF (N-terminal TRAF domain of USP7). The experiment is described as follows: co-IP; Flag-USP7 or Flag-tagged truncated mutants (TRAF, CD, HUBL) transfected into SK-Hep1 cells; immunoprecipitation with flag antibody, immunoblotting for the endogenous partner. (In western blotting, separated proteins are transferred to a membrane and probed.)

No constants are given. Whether binding was seen depends on the method and setting. Binding seen in cells or lysates may run through a third protein. A result given as binding can be weak or reduced; the word gives no strength. Where a sequence is shown, tags or fusion partners need not be part of it.

B1: SREBP1C (form not told, co-precipitated with Flag-tagged USP7 domains) (protein, UniProt P36956-3 1-1047)
chain: MDCTFEDMLQLINNQDSDFPGLFDPPYAGSGAGGTDPASPDTSSPGSLSPPPATLSSSLEAFLSGPQAAPSPLSPPQPAPTPLKMYPSMPAFSPGPGIKEESVPLSILQTPTPQPLPGALLPQSFPAPAPPQFSSTPVLGYPSPPGGFSTGSPPGNTQQPLPGLPLASPPGVPPVSLHTQVQSVVPQQLLTVTAAPTAAPVTTTVTSQIQQVPVLLQPHFIKADSLLLTAMKTDGATVKAAGLSPLVSGTTVQTGPLPTLVSGGTILATVPLVVDAEKLPINRLAAGSKAPASAQSRGEKRTAHNAIEKRYRSSINDKIIELKDLVVGTEAKLNKSAVLRKAIDYIRFLQHSNQKLKQENLSLRTAVHKSKSLKDLVSACGSGGNTDVLMEGVKTEVEDTLTPPPSDAGSPFQSSPLSLGSRGSGSGGSGSDSEPDSPVFEDSKAKPEQRPSLHSRGMLDRSRLALCTLVFLCLSCNPLASLLGARGLPSPSDTTSVYHSPGRNVLGTESRDGPGWAQWLLPPVVWLLNGLLVLVSLVLLFVYGEPVTRPHSGPAVYFWRHRKQADLDLARGDFAQAAQQLWLALRALGRPLPTSHLDLACSLLWNLIRHLLQRLWVGRWLAGRAGGLQQDCALRVDASASARDAALVYHKLHQLHTMGKHTGGHLTATNLALSALNLAECAGDAVSVATLAEIYVAAALRVKTSLPRALHFLTRFFLSSARQACLAQSGSVPPAMQWLCHPVGHRFFVDGDWSVLSTPWESLYSLAGNPVDPLAQVTQLFREHLLERALNCVTQPNPSPGSADGDKEFSDALGYLQLLNSCSDAAGAPAYSFSISSSMATTTGVDPVAKWWASLTAVVIHWLRRDEEAAERLCPLVEHLPRVLQESERPLPRAALHSFKAARALLGCAKAESGPASLTICEKASGYLQDSLATTPASSSIDKAVQLFLCDLLLVVRTSLWRQQQPPAPAPAAQGTSSRPQASALELRGFQRDLSSLRRLAQSFRPAMRRLMDVLTSESAWALPQHLGKGFPSPSGHKVPGWHGRMD
In the case of B1, the binding entry is reported as “binds”.

(Values after PMC7548010.)
